Measurements: article PMC6938330, “Crystal structures of p120RasGAP N-terminal SH2 domain in its apo form and in complex with a p190RhoGAP phosphotyrosine peptide” (PLoS ONE, 2019)
These are yes or no findings as the source states them, for the method shown.

T1: R207A mutant p120RasGAP N-terminal SH2 domain (human) (UniProt P20936)
T1 sequence: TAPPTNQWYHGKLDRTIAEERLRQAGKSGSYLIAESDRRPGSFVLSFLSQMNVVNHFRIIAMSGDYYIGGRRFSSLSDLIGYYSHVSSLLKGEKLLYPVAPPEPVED


Key:
[1] = biological target: T1, R207A mutant p120RasGAP N-terminal SH2 domain (human); assay: ITC; peptide in the burette injected into N-SH2 in the cell (78.5 μM into 15 μM wild type; 120 μM into 15 μM R207A); 20 mM Tris 7.4, 150 mM NaCl; Nano-ITC, 20 injections of 2.5 μL; independent binding model; two runs; both purified
[2] = biological target: T1, R207A mutant p120RasGAP N-terminal SH2 domain (human); assay: condition: phosphopeptide 0.02 mM to 0.15 mM with 0.08 mM protein; native gel or EMSA; native PAGE; 0.08 mM protein mixed with 0.02-0.15 mM phosphopeptide (peptide:protein ratio 0.25 to 1.9) in 50 mM Tris pH 7.4, 10 minutes on ice; 4-20% gel, 25 mM Tris, 192 mM glycine, pH 8.3; Coomassie stain; both purified
[3] = biological target: p120RasGAP N-terminal SH2 domain (residues 174-280, C236S, C261S) (human) (UniProt P20936); assay: crystal structure; apo N-SH2 crystals, 6 copies per asymmetric unit in P3_(2); 0.2 M ammonium acetate, 0.1 M Tris pH 8.0, 21% w/v PEG 10,000, room temperature; 1.75 Å; both purified

Row | binding [2] | binding [3] | Binder | binding [1]
1 | no binding | – | EEENIYSVPHDST (phosphotyrosine at Tyr-1105; N-terminal acetylation; C-terminal amidation) [p190RhoGAP pTyr-1105 phosphopeptide EEENI(p-Tyr)SVPHDST (residues 1100-1112)] | no binding (tested: 120 μM peptide into 15 μM protein)
2 | – | no binding | p120RasGAP N-terminal SH2 domain (residues 174-280, C236S, C261S) (domain or fragment, UniProt P20936 174-280) TAPPTNQWYHGKLDRTIAEERLRQAGKSGSYLIRESDRRPGSFVLSFLSQMNVVNHFRIIAMSGDYYIGGRRFSSLSDLIGYYSHVSSLLKGEKLLYPVAPPEPVED | –
